The values that follow come from the supplement of paper PMC5949888.

Most values lie at the floor of the assay. Slopes are relative: functional sequences can read slightly below zero.

The test system of the series is Saccharomyces cerevisiae PS128 hsf1 delta, HSF1(1-493) fusion. In words: growth estimate (transactivation domain function in HSF1 fusion, heat-shock survival) (a.u. (slope of normalised read count over time)); higher = stronger growth at 37°C, i.e. more transactivation activity. The note with it: library: random library. As for the experimental part: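 Random 60-nt DNA library encoding peptides of up to 20 aa, fused to the C-terminus of yeast HSF1 residues 1-493 (C-terminal TAD deleted) and expressed from the native HSF1 promoter on a CEN plasmid in hsf1-deleted S. cerevisiae PS128. Cells were selected at 37°C on -trp 5-FOA plates for 0, 2, 4, 6 and 8 days and amplicons were sequenced. Growth estimate is the slope of a robust linear fit of total-sum-normalised read counts (normalised to the first time point) over time, using at least 2 replicates. Sequences are classed functional (TAD activity) above a threshold of -0.13, set from stop-codon control sequences.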
Consider CLESAGDDTSPWAPYQAATV, for which the growth estimate was < -0.25.

For the substance AQSERELTVTVTVQTRLAQM, the growth estimate is < -0.25. Regarding CPFMSLVTLRGSKRPV, the growth estimate is < -0.25.

On to DLGTFDDLDLGQHLTDPRAD, for which the growth estimate is < -0.25. In the case of TSVGKICNE, the growth estimate was < -0.25. The result for VKRCCDVSFPCRTHKPLIGR reads < -0.25; that for HNVSPLLSLRLVGSFSENNS, < -0.25. The result for LRLRGNAGSSFRF reads < -0.25; that for GHKHHGIRRRRLR, < -0.25. As to VIKGRLANLQDRAVLPGDTS, the growth estimate was < -0.25. Take NRQDTSASRIPCNIG: the growth estimate was < -0.25. As for VNAGYPVRYCLFRTNLAGQQ, the growth estimate was < -0.25. Take PKRRPGRIVHVKTDQSPATA: the growth estimate was < -0.25. Take VESAGFTTEGIIVRSTPD: the growth estimate was < -0.25. The same measure for LMSEWSPCWRLSTTLHLDSE: < -0.25; for ITSGHCFTNRH: < -0.25.

Regarding PRIIHRRIILFEPDALSILA, the growth estimate is < -0.25.

In the case of LCSASGASIPI, the growth estimate was < -0.25.

Take YRPYSRSENS: the growth estimate is < -0.25. The same measure for LNIVY: < -0.25; for GTNMESGVGRIITGGYCRAW: < -0.25.

For FSGTG, the growth estimate is -0.248. On to NPWTIGKCSGGERGKSLIHE, for which the growth estimate was -0.25. The result for IKSRCLRKRDSRSRYRLRMS reads < -0.25; that for GCYIRNAAAIGLTVVGRRLR, < -0.25; that for ERVILGDSQ, < -0.25. As for GLKPCRTPPHHSFNGQTSTR, the growth estimate was 0.0206. For the substance EGVGDRTWLVLYGQLYTHDG, the growth estimate is < -0.25. The same measure for VRCLVTRKIGACR: < -0.25; for RDMGVGLPKSPRAFDHGLLA: -0.172; for TSPGNGGNIPDCVTLKHGR: < -0.25.

Consider NRGVSQAGEIHTGER, for which the growth estimate is < -0.25. For VTVYPYWCHRLKPV, the growth estimate was < -0.25.

Take PGIGLIQRTAVAIWLSWGMS: the growth estimate is < -0.25. Turning to SSDL, the growth estimate is < -0.25.

For TTQLGFHPGTVLVGVLLTIK, the growth estimate is 0.342.

Turning to TWFNALAVT, the growth estimate was < -0.25. For VALHSV, the growth estimate is < -0.25.

Turning to ARRRIRA, the growth estimate was < -0.25. Turning to FPSEKVVRIFPCGRLARGTA, the growth estimate is < -0.25. The result for RSTIDRPIQLAACRPVCC reads < -0.25; that for AAKGLGAESVIIWVSVRSTR, < -0.25; that for RPGGSVRSRDAGFLSSPSLQ, < -0.25. Regarding PGPMICICLNSARLYERAGH, the growth estimate is < -0.25. Consider RNTKHHC, for which the growth estimate is < -0.25. As for VIAMASRRLGGICLVQR, the growth estimate was < -0.25. Turning to SWVDPMSG, the growth estimate is < -0.25. Regarding KSSRTVWPPGSL, the growth estimate was < -0.25. Take GVSGRTAHIHSELSIVRNAN: the growth estimate was < -0.25. As for NKR, the growth estimate was < -0.25. As for NLLCTTPRATYHCSY, the growth estimate is < -0.25. For the substance HRLRLGLI, the growth estimate was < -0.25. On to SRRSRAMKTGASVERW, for which the growth estimate was < -0.25. With CEVYVKLWVLSEQEQCRRFS, the growth estimate was -0.245. As for PDYVVRCLFSSRLQSPGHSI, the growth estimate is < -0.25. Take TGVGPGFRWGSIVCCGPIVT: the growth estimate is < -0.25.

With QVGYMAWGRSYVHRRRFLTR, the growth estimate was -0.246. As to AQNGGLAELGANTVHRTPQA, the growth estimate was < -0.25. Consider FVPIEPTQIGIVLYETSGCV, for which the growth estimate is < -0.25. For the substance VLDLPLLTPRALKARQDLA, the growth estimate is < -0.25.

As for RCKVTLARGKSESSGSLRTS, the growth estimate was < -0.25. ASRNSSVSNPPNGLGA: the growth estimate is < -0.25. Take ASFVTWGCNPRCTIRGIGPV: the growth estimate was < -0.25. Take HGGGR: the growth estimate was < -0.25. As to VDKRT, the growth estimate is < -0.25. For KLAFQVMG, the growth estimate is < -0.25. Consider EHPLGRMELEFHRRGEVFTG, for which the growth estimate is < -0.25. The same measure for CCSCERSLYVGGRSHINYTV: < -0.25; for RSESTVK: < -0.25.

Turning to VFS, the growth estimate was < -0.25. On to LYVWYRFGLWVCNLVCTLSR, for which the growth estimate was < -0.25. Consider AHGGEWEFAGSTRVLMLTFI, for which the growth estimate was < -0.25. Turning to YKGSIEKSLLALKGLSGTQK, the growth estimate is < -0.25.

Regarding AAARSWWTSHRAVSSKSCDA, the growth estimate is < -0.25.

With FKIVPARWPGLAINAVRRRV, the growth estimate is < -0.25. For GTIR, the growth estimate is < -0.25.

Take AIGRDPGQHRKVRMAPR: the growth estimate is < -0.25. Take KVQVSPVAINNTSVLVLGMM: the growth estimate was < -0.25. With RCASRPDALVDSNALVGRRG, the growth estimate was < -0.25. With GSCFTQLFAKSWCIPSPVRM, the growth estimate is < -0.25. Turning to VSTNTTADESPAPPCTRPTR, the growth estimate is < -0.25. As for TAPRR, the growth estimate is < -0.25.

Consider FFSVMVRVD, for which the growth estimate is < -0.25. The result for RGHLQKQAMSSVA reads < -0.25. With SSFGGERPMREVWLPGRADK, the growth estimate is < -0.25. Take NVPRQFRRETGEGLTSWIKC: the growth estimate is < -0.25.

Regarding RPGIRIARSTDTQSLAHHGL, the growth estimate is < -0.25. On to FLVFSTRLGHQYNYH, for which the growth estimate is < -0.25.

For the substance PLSDG, the growth estimate is < -0.25. The result for RPMRMMRDRGDVLPRSRLRE reads < -0.25. The result for RGLNARRRRLDAGQVLVGIL reads < -0.25; that for LLLLKSAKIDSVRRS, < -0.25. For KIVELEMDLGWI, the growth estimate is < -0.253.

Regarding LVLRLYTERQQLGWKPGHSV, the growth estimate was < -0.25. As to QYVIGIFEI, the growth estimate was < -0.25.

Regarding ETSQDPRTEGF, the growth estimate was < -0.25.

In the case of WGYRGNMQSPGH, the growth estimate is < -0.25. Regarding GVEDGAAPRFPPRRSTSSNS, the growth estimate is < -0.25.

Turning to TYVKGLVTRLTGTGRYTNAK, the growth estimate is < -0.25. The result for PDVREWVP reads < -0.25; that for RGQVRVG, < -0.25; that for IRWHYTA, < -0.25. Take REKQSYHQGERAA: the growth estimate is < -0.25.

On to LIYIARHRWIPMLASWLSWA, for which the growth estimate is < -0.25. On to SCPGLPE, for which the growth estimate was < -0.25.

RSSYAHVHRASGTGDSIDQI: the growth estimate was < -0.25. For the substance YGAARTGLSYRCEERDRPVQ, the growth estimate was < -0.25. As to WSATTNRSLSKCNQLRRALI, the growth estimate is < -0.25.

For LADSTAP, the growth estimate was < -0.25. For the substance GCQVPNRLFCLLRGSDSY, the growth estimate is < -0.25. The result for WTTSRT reads < -0.25; that for ESYGPPSENYQCPRFCDELT, < -0.25; that for SADPQPPGHR, < -0.25. In the case of RKYYV, the growth estimate was < -0.25.

For the substance RAGTPMEAG, the growth estimate is < -0.25. GIELRADAPESGDHTSCTVG: the growth estimate is < -0.25. Take CGLIDRAIINLPSRLTS: the growth estimate was < -0.25.

Consider WFLCWRLGYKSFLISGEGPG, for which the growth estimate was < -0.25. For the substance KKHKHRVELPSHLIAIVATH, the growth estimate is < -0.25.

QLGWLVH: the growth estimate was < -0.25. The same measure for CRISTGSHPQWVPNSYNRTV: < -0.25; for IEGAKRPYQAWWSVWRYCVS: < -0.25.

Consider WQIEHHECVFIHSQRLHRIP, for which the growth estimate was < -0.25.

With QKTDLSSSKEGSVR, the growth estimate is < -0.25.

As for TERPLHDYRVKVTCFPSTRH, the growth estimate is < -0.25. IRVTILQKLSLSTLT: the growth estimate is < -0.25. As for YRVEKETTGCSGSRGARVLW, the growth estimate is < -0.25. TSCGREPIVLGRSSPSVTIS: the growth estimate was < -0.25. Take NDVLI: the growth estimate is 0.0846. With SERITPCRAGGCLPLPNCAP, the growth estimate was < -0.25. LRGAFIGVKAPGHAGRPSYH: the growth estimate was < -0.25.

Regarding SHLVYSLQASD, the growth estimate was < -0.25. Take RMRSDDWDIRPGLGGEIPGK: the growth estimate is < -0.25. Turning to VFGRRESGLSGESRTGIRSL, the growth estimate is < -0.25. On to SVAFAYGRRVL, for which the growth estimate is < -0.25.

KSVSISAKMRGTNCASPLCP: the growth estimate is < -0.25.

With RNRDQTDELVARFTAKSTPR, the growth estimate is -0.208.

Consider LEGFSQCECRASSTFSA, for which the growth estimate was < -0.25. As for RTQFHASYEVLVGVVKDHGQ, the growth estimate is < -0.25. In the case of GFERCARNCQSEVSHFTPST, the growth estimate is < -0.25. The result for FYNA reads < -0.25; that for RLEAAVPAPYEYLTWTLNWT, < -0.25; that for CNIGN, < -0.25. With SRRTTLWQRVVGGWGNVASP, the growth estimate was < -0.25. Regarding RGRTYYHAPIRTPGTKERVL, the growth estimate was < -0.25. For the substance HTYQSSVQASLERKPPST, the growth estimate is < -0.25. The result for STAWDEVTV reads < -0.25; that for TSNNSRLTDPVMLLRTDRAP, < -0.25.
